According to patent publication US20250171560A1:
These are yes or no findings as the source states them, for the method shown. Some entries that bind do so weakly or less than the wild type. For part of these data: Sequences can lack the tags named with a protein.

How the values were obtained:
[1] = biological target: T1, recombinant UPK2 extracellular domain (UPK2-His) (Homo sapiens (Human)) (UniProt O00526); experiment: phage ELISA (FIG. 21)
T1 sequence: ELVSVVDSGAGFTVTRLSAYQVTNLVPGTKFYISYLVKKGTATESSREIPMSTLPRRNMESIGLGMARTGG

[2] = biological target: T1, recombinant UPK2 extracellular domain (UPK2-His) (Homo sapiens (Human)); experiment: phage ELISA, purified scFv phage on UPK2-his coated at 0.5 ug/ml, OD490
[3] = biological target: T1, recombinant UPK2 extracellular domain (UPK2-His) (Homo sapiens (Human)); experiment: SPR, BIAcore X-100
[4] = biological target: T1, recombinant UPK2 extracellular domain (UPK2-His) (Homo sapiens (Human)); experiment: ELISA, specificity (FIG. 23)
[5] = biological target: T1, recombinant UPK2 extracellular domain (UPK2-His) (Homo sapiens (Human)); experiment: summary of ELISA and specificity analysis
[6] = biological target: T1, recombinant UPK2 extracellular domain (UPK2-His) (Homo sapiens (Human)); experiment: ELISA, recombinant whole antibody on UPK2-His (FIG. 22)
[7] = biological target: T1, recombinant UPK2 extracellular domain (UPK2-His) (Homo sapiens (Human)); experiment: ELISA, antibody dilution series on UPK2-his coated at 0.5 ug/ml, OD490
[8] = biological target: T2, ACPP in paraffin sections of prostate cancer tissue; experiment: immunofluorescence staining of paraffin sections of prostate cancer
T2 sequence: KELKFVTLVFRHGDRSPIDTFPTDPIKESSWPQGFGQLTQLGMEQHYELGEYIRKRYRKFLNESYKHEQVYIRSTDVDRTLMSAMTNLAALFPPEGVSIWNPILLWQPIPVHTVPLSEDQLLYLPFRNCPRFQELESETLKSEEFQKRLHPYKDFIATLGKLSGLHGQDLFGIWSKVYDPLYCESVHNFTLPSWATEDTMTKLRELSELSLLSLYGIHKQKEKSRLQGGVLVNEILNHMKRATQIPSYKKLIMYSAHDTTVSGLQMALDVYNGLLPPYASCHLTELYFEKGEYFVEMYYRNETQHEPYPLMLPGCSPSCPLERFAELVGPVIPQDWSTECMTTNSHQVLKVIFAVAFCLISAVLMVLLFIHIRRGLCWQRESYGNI

Measured: binding

B1: scFv UPK2-S3D10 (phage display clone) (scFv)
scFv: QVQLQQSGAELVRSGASVKLSCTDSGFNIKDYYMNWVKQRPEQGLEWIGWIDPENGVTQYDPKFQGKATVTADTFSNTAYLQLSSLTSEDTAVYYCNANYKYDWFGYWGQGTLVTVSAGGGGSGGGGSGGGGSNIVMTQSPSSLSASLGERVSLTCRASQEISGYLSWLQQKPDGTIKRLIYAASTLDSGVPERFSGSRSGSDYSLTISSLESEDFADYYCLQYASYPWTFGGGTKLEMK
binds: [1] | [2]

B2: scFv UPK2-S2E2 (phage display clone) (scFv)
scFv: QVKLQQSGPELVRPGASVKMSCKASGYTFTTYWMHWVKQRPGQGLEWIGMIDPSNSDTRLNQKFKDKATLNVDTSSNTAYMHLSSLTSEDSAVYYCTLGGTEYWGQGATLTVSSGGGGSGGGGSGGGGSSIVMTQSPATLSVTPGDRVSLSCRASQSIGDYLHWFQQKSHESPRLLIKYASQSISGIPSRFSGSGSGSDFTLIINTMEPEDVGVYYCQNAHTYPYTFGGGTKLEIK
binds: [1] | [2]

B3: recombinant anti-UPK2 monoclonal antibody S7F11 (murine-human chimeric) (antibody, V domains shown)
VH: EVQLKESGAELVRSGASVKLSCTASAFNIKDYYMNWMKQRPEQGLEWIGWIDPENGDTKYAPKFQGKATITADTSSSTAYLQLTSLTSEDSAVFYCNVNYKYDWFAYWGQGTLVTVSA
VL: DVVMTQSQKFMSTSVGDRVSVTCKASQNVGTNVAWYQQKPGQSPRALIYSASYRYSGVPDRFTGSGSGTDFTLTISNVQSEDLAEYFCQQYNTYPWTFGGGTKLEIK
binds: [3] | [4] | [5] | [6] | [7]

B4: scFv UPK2-S3A4 (phage display clone) (scFv)
scFv: EVKLKQSGAELVKPGASVKLSCKASGYTLTSYYIYWVKQRPGQGLEWIGGISPSNGNTYFTEKFKNMATLTVDKSSNTAYMQLSSLTSEDSAVYYCARNYDYDVGFAYWGQGTLVTVSSGGGGSGGGGSGGGGSDVVMTQTPLSLPVSLGDQASISCRSSQSIVHSNGNTYLEWYLQKPGQSPKLLIYKVSNRFSGVPDRFSGSGSGTDFTLKISRVEAEDLGVYYCFQGSHVPFTFGSGTKLEIK
binds: [1] | [2]

B5: recombinant anti-UPK2 monoclonal antibody S3A4 (murine-human chimeric) (antibody, V domains shown)
VH: EVKLKQSGAELVKPGASVKLSCKASGYTLTSYYIYWVKQRPGQGLEWIGGISPSNGNTYFTEKFKNMATLTVDKSSNTAYMQLSSLTSEDSAVYYCARNYDYDVGFAYWGQGTLVTVSS
VL: DVVMTQTPLSLPVSLGDQASISCRSSQSIVHSNGNTYLEWYLQKPGQSPKLLIYKVSNRFSGVPDRFSGSGSGTDFTLKISRVEAEDLGVYYCFQGSHVPFTFGSGTKLEIK
binds: [4] | [5] | [6] | [7]

B6: ACPP antibody S5D1 (human full antibody) (antibody, V domains shown)
VH: EVQLVQSGAEVKKPGESLKISCKGSGYTFTNYWIGWVRQMPGKGLEWMGRIYPSDSYTNYSPSFQGQVTISADKSISTAYLQWSSLKASDTAMYYCARDLEPTHHYSWGQGTLVTVSS
VL: QSVLTQPASVSGSPGQSVTISCTGTSSDVGGYNYVSWYQQHPGKPPKLMIYEVSKRPSGVPDRFSGSKSGNTASLTISGLQAEDEADYYCSSHTSSNTLIFGGGTKVTVL
binds: [8]

B7: recombinant anti-UPK2 monoclonal antibody S3D10 (murine-human chimeric) (antibody, V domains shown)
VH: QVQLQQSGAELVRSGASVKLSCTDSGFNIKDYYMNWVKQRPEQGLEWIGWIDPENGVTQYDPKFQGKATVTADTFSNTAYLQLSSLTSEDTAVYYCNANYKYDWFGYWGQGTLVTVSA
VL: NIVMTQSPSSLSASLGERVSLTCRASQEISGYLSWLQQKPDGTIKRLIYAASTLDSGVPERFSGSRSGSDYSLTISSLESEDFADYYCLQYASYPWTFGGGTKLEMK
binds: [3] | [4] | [5] | [6] | [7]

B8: recombinant anti-UPK2 monoclonal antibody S2E2 (murine-human chimeric) (antibody, V domains shown)
VH: QVKLQQSGPELVRPGASVKMSCKASGYTFTTYWMHWVKQRPGQGLEWIGMIDPSNSDTRLNQKFKDKATLNVDTSSNTAYMHLSSLTSEDSAVYYCTLGGTEYWGQGATLTVSS
VL: SIVMTQSPATLSVTPGDRVSLSCRASQSIGDYLHWFQQKSHESPRLLIKYASQSISGIPSRFSGSGSGSDFTLIINTMEPEDVGVYYCQNAHTYPYTFGGGTKLEIK
binds: [4] | [5] | [6] | [7]

B9: scFv UPK2-S7F11 (phage display clone) (scFv)
scFv: EVQLKESGAELVRSGASVKLSCTASAFNIKDYYMNWMKQRPEQGLEWIGWIDPENGDTKYAPKFQGKATITADTSSSTAYLQLTSLTSEDSAVFYCNVNYKYDWFAYWGQGTLVTVSAGGGGSGGGGSGGGGSDVVMTQSQKFMSTSVGDRVSVTCKASQNVGTNVAWYQQKPGQSPRALIYSASYRYSGVPDRFTGSGSGTDFTLTISNVQSEDLAEYFCQQYNTYPWTFGGGTKLEIK
binds: [1] | [2]
